From PubChem BioAssay AID720504 (National Center for Advancing Translational Sciences (NCATS), 2013)
The campaign covered roughly 360,000 compounds. About 10,000 (2.8%) were called active. Inconclusive results, whose numbers are uncertain, are shown with a selection of clear calls. The call rests on the fitted dose curve; in most records, active means well fitted inhibition curve with a large enough effect; inconclusive means small, poorly fitted or top-dose-only effect; inactive means flat fitted curve, though single readings scatter. A potency beside an inconclusive call is a rough fit, not a confirmed value.

Protein sequences, listed by entry. Tags and fused reporters are not part of them.
UniProt P53350, whole entry, looked up: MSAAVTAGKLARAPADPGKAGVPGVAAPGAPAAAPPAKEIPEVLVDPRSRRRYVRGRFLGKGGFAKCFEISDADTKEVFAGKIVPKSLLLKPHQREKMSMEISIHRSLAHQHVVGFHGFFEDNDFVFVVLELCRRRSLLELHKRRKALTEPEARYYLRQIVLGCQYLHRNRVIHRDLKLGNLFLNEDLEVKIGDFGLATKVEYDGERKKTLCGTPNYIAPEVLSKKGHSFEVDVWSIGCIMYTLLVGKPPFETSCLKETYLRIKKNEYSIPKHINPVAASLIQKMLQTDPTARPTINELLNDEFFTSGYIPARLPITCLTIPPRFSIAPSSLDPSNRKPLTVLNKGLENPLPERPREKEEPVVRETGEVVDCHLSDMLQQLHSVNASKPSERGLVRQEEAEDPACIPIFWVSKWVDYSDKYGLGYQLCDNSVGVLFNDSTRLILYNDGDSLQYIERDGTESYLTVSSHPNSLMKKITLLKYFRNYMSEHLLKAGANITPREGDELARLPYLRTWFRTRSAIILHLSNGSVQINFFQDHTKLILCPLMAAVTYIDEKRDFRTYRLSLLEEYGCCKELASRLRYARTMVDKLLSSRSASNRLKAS

Molecular target: Serine/threonine-protein kinase PLK1 (Homo sapiens) (UniProt P53350)
Test: qHTS for Inhibitors of PLK1-PDB (polo-like kinase 1 - polo-box domain): Primary Screen; further: nearly all actives have a fitted effect of over 65% in size; on max response, negative = inhibition: series mostly up to about 57 µM
Settings: Plk1 PBD binding of FITC phosphopeptide, fluorescence polarization
On the % scale 0 is the no-effect control and ±100 the full control effect; potency means the concentration at half of the fitted maximal effect.

Structure (SMILES) | Potency | max response, negative = inhibition
Cc1ccc2c(c1)NP(=S)(Oc1ccccc1)N2 (stereo unspecified) | inconclusive: 33.6 µM [inhibitor, single point] | 
Cc1ccc(/C=C2\C(=O)NC(=O)N(CCc3ccc(F)cc3)C2=O)o1 | active: 0.947 µM | 
CCOc1cc(/C=C(\C#N)C(=O)NCC2CCCO2)ccc1OCC(N)=O (stereo unspecified) | active: 29.9 µM | 
CCOP(=S)(OCC)Oc1nc(Cl)c(Cl)cc1Cl | active: 29.9 µM | 
CCCn1c(=O)n(C)c(=O)c2c(SCC(=O)NC34CC5CC(CC(C5)C3)C4)nc(CC(C)C)nc21 | active: 29.9 µM | 
COC(=O)C1CN(C#N)N(c2ccc(Cl)cc2)C12c1ccccc1-c1ccccc12 (stereo unspecified) | inconclusive: 7.52 µM [inhibitor, partial curve] | 
Cc1cccc(N2C(=O)NC(=O)/C(=C\c3ccc4c(c3)CCCN4Cc3ccccc3)C2=O)c1 |  | inconclusive: -18.9% [inhibitor]
COc1ccc(NC2=NCC(C)S2)cc1 (stereo unspecified) |  | inactive: -19%
CC(=O)O[C@H]1CCC2C3CCC4=CC(=O)CCC4=C3C=C[C@@]21C (stereo partly specified) | inconclusive: 37.7 µM [inhibitor, single point] | 
COP(=S)(OC)Oc1ccc(Sc2ccc(OP(=S)(OC)OC)cc2)cc1 | inconclusive: 23.8 µM [inhibitor, partial curve] | 
COCCNC(=O)c1c(NC(=O)c2ccc(Br)o2)n(Cc2ccccc2)c2nc3ccccc3nc12 |  | inactive: -9.51%
CN1CCC(O)(c2ccc(Cl)cc2)C(C(=O)c2ccc(Cl)cc2)C1 (stereo unspecified) | active: 4.74 µM | 
COc1ccc(C(=O)N2CCOCC2)cc1S(=O)(=O)N1CCC(C)CC1 |  | inactive: -2.76%
CC(Cc1ccc(O)cc1)NCC(O)c1ccc(O)c(O)c1 (stereo unspecified) | inconclusive: 29.9 µM [inhibitor, partial curve] | 
O=C(Nc1ccc(Cl)c(Cl)c1)O/N=C/c1ccncc1 | inconclusive: 2.38 µM [inhibitor, full curve] | 
O=C(O)c1[nH]c(=O)[nH]c(=O)c1F |  | inactive: -7.04%
O=C1NC(=O)C(=Cc2coc3ccc(O)cc3c2=O)C(=O)N1 | active: 26.7 µM | 
COC(=O)c1[nH]c2ccc(C)cc2c1NC(=O)Oc1ccccc1 | inconclusive: 26.7 µM [inhibitor, partial curve] | 
NS(=O)(=O)c1ccc(CNC(=O)COc2ccc3c4c(c(=O)oc3c2)CCCC4)cc1 | active: 23.8 µM | 
Clc1ccc(COC(Cn2ccnc2)c2ccc(Cl)cc2Cl)c(Cl)c1 (stereo unspecified) | inconclusive: 6.7 µM [inhibitor, partial curve] | 
CN1CCCC(C(=O)c2ccccc2)C1 (stereo unspecified) | inconclusive: 23.8 µM [inhibitor, partial curve] | 
N#CC(C#N)=NNc1ccc(-n2ccc(C(F)(F)F)n2)cc1 | inconclusive: 23.8 µM [inhibitor, single point] | 
CCN1C(=O)C(=Cc2ccc(C)s2)C(=O)N(CC)C1=S | active: 0.532 µM | 
O=C(C(=C1N(Cc2ccc(Cl)nc2)CCN1Cc1ccc(Cl)nc1)[N+](=O)[O-])C(Cl)Cl | inconclusive: 23.8 µM [inhibitor, single point] | 
Clc1cccc(C2NCc3ccccc3-n3cccc32)c1 (stereo unspecified) | active: 29.9 µM | 
CCOC(=O)[C@]12Cc3cc(C)ccc3[C@H]1N(Cc1ccccc1)C(=O)c1cc(F)c(F)cc12 | active: 10.6 µM | 

Retrieved by structure from the list above, 3 records:
Structure (SMILES) | Potency | max response, negative = inhibition
Clc1ccc(COC(Cn2ccnc2)c2ccc(Cl)cc2Cl)c(Cl)c1 (stereo unspecified) | inconclusive: 6.7 µM [inhibitor, partial curve] | 
Cc1cccc(N2C(=O)NC(=O)/C(=C\c3ccc4c(c3)CCCN4Cc3ccccc3)C2=O)c1 |  | inconclusive: -18.9% [inhibitor]
COc1ccc(C(=O)N2CCOCC2)cc1S(=O)(=O)N1CCC(C)CC1 |  | inactive: -2.76%

Remaining list, next part.

Structure (SMILES) | Potency | max response, negative = inhibition
CCS(=O)(=O)C1=NN2C(=N)/C(=C\c3ccc(OC(=O)c4ccco4)cc3)C(=O)N=C2S1 | inconclusive: 5.32 µM [inhibitor, partial curve] | 
CN(Cc1ccccc1)C(=O)c1ccc(NC(=O)C2CCN(C(=O)OC(C)(C)C)CC2)cc1 | active: 29.9 µM | 
CN(C)c1ccc(C=C2C(=O)NC(=O)NC2=O)cc1[N+](=O)[O-] | active: 7.52 µM | 
COc1ccc2[nH]cc(C(=O)CN(C)C)c2c1 |  | inactive: -4.99%
Cn1cc(C=C2C(=O)NC(=O)NC2=O)c2ccccc21 | active: 23.8 µM | 
C[C@]12CCC3C(CC[C@H]4C[C@H](O)CC[C@]34C)C1CCC2=O (stereo partly specified) |  | inactive: 2.32%
CCCC[N+]12CCC(CC1)C(=C(c1ccccc1)c1ccccc1)C2 |  | inconclusive: -33% [inhibitor]
Cc1ccc(-n2c(-c3nn(C)c(C)c3Cl)n[nH]c2=S)cc1 | active: 29.9 µM | 
C=CCSC1=N/C(=C\c2cc(OC)c3c(c2)OCO3)C(=O)S1 | inconclusive: 10.6 µM [inhibitor, partial curve] | 
CNS(=O)(=O)c1ccc(N=Cc2c(O)n(-c3cccc(C)c3)c(=O)[nH]c2=O)cc1 | inconclusive: 18.9 µM [inhibitor, partial curve] | 
COc1cc(N2C(=O)CC(=O)NC2=O)cc(OC)c1OC |  | inconclusive: -32.6% [inhibitor]
CCCc1nn(C)c2c1C(c1ccncc1)C(C#N)=C(N)O2 (stereo unspecified) | inconclusive: 37.7 µM [inhibitor, single point] | 
COc1ccc(-n2nc(C(=O)NCC(=O)N3CCC4(CC3)OCCO4)c3ccccc3c2=O)c(OC)c1 |  | inactive: 5.82%
O=C1NC(=O)N(CCC2=CCCCC2)C(=O)/C1=C\c1cccs1 | active: 1.06 µM | 
O=C(N/N=C/c1c(O)n(C2CC2)c(=S)[nH]c1=O)c1ccccc1 |  | inconclusive: -13.9% [inhibitor]
O=c1oc2ccccc2c(O)c1C(c1ccccn1)c1c(O)c2ccccc2oc1=O |  | inactive: -8.11%
Cc1ccc(N2C(=O)NC(=O)/C(=C/c3cnc(-c4ccccc4)nc3)C2=O)cc1C | active: 4.23 µM | 
COc1ccccc1N1C(=O)NC(=O)/C(=C\c2cnn(-c3ccccc3)c2)C1=O | active: 3.36 µM | 
CN(C)CCNC(=O)c1cccn(Cc2cccc(C(F)(F)F)c2)c1=O | active: 18.9 µM | 
COC(=O)CCC(=O)Nc1sc(Cc2ccccc2)c(C)c1C(N)=O | active: 2.38 µM | 
CCOC(=O)[C@@H]1[C@H]2COc3ccc(Br)cc3[C@@H]2N2C(=O)N(c3cccc(C)c3)C(=O)[C@]12C |  | inactive: -17%
CN1C(=O)C(=Cc2ccc(OCCN(C)c3ccccn3)cc2)C(=O)N(C)C1=O | inconclusive: 21.2 µM [inhibitor, single point] | 
COc1ccc(C=C2C(=O)NC(=S)NC2=O)cc1OC | active: 21.2 µM | 
Cc1ccc2c(c1)=C/C(=C\c1c(O)[nH]c(=O)[nH]c1=O)C(=O)N=2 | active: 11.9 µM | 
C[N+](C)(C)CC1CCCc2ccccc2C1=O (stereo unspecified) |  | inactive: -4.93%
NC(=S)c1cn(C2OC(CO)C(O)C2O)c2ncnc(N)c12 (stereo unspecified) | active: 26.7 µM | 

Structure (SMILES) | Potency | max response, negative = inhibition
CSc1ccc(CN2CCN(C(=O)Cc3ccccc3)CC2)cc1 |  | inactive: -12.7%
Clc1cccc(/C=N\Nc2nccs2)c1 | inconclusive: 26.7 µM [inhibitor, partial curve] | 
COC(=O)C1=C(C)NC(=S)NC1c1ccc(N(CCCl)CCCl)cc1Cl (stereo unspecified) |  | inactive: -0.631%
C=CCN1C(=O)NC(=O)/C(=C/c2cc3c4c(c2)CCCN4CCC3)C1=O | inconclusive: 2.38 µM [inhibitor, full curve] | 
COc1cccc(N2C(=O)NC(=O)/C(=C\c3cn(C)c4ccccc34)C2=O)c1 | active: 9.47 µM | 
CN1C(=O)/C(=C/C=C/c2ccco2)C(=O)NC1=S | inconclusive: 2.67 µM [inhibitor, partial curve] | 
O=c1[nH]c(=S)n(-c2ccc(Br)cc2)c(O)c1C=Nc1ccc(N2CCOCC2)cc1 | inconclusive: 15 µM [inhibitor, partial curve] | 
Cc1sc(NC(=O)CSc2n[nH]c(N)n2)c(C#N)c1C | inconclusive: 26.7 µM [inhibitor, single point] | 
COc1ccc(/C=C/C(=O)c2c(O)n(CCC3=CCCCC3)c(=O)[nH]c2=O)cc1 | inconclusive: 37.7 µM [inhibitor, single point] | 
CC1C(c2ccccc2)OC(=O)N1C (stereo unspecified) |  | inactive: -10%
O=C(Nc1ccc(Cl)cc1)O/N=C(\c1ccccc1)c1ccccn1 |  | inconclusive: -30.2% [inhibitor]
COc1ccc(N2C(=O)CS(=O)C(c3ccccc3)C2=O)cc1 (stereo unspecified) | active: 2.38 µM | 
O=C1NC(=O)N(c2ccc(F)cc2)C(=O)/C1=C/c1ccc(N2CCOCC2)cc1 | active: 11.9 µM | 
C=CCc1c(C)nc(C)nc1N/N=C/c1ccc(N(C)C)cc1 | inconclusive: 33.6 µM [inhibitor, single point] | 
COc1ccc(CN2C(=O)NC(=O)/C(=C/c3ccoc3)C2=O)cc1 | active: 2.38 µM | 
Oc1ccc2ccccc2c1CN1CC=C(c2ccccc2)CC1 | inconclusive: 29.9 µM [inhibitor, single point] | 
COC(=O)CSC1=NN1c1cc(C)nc(N)n1 |  | inactive: -10.6%
CCCNC(=O)c1c(N)n(CC2CCCO2)c2nc3ccccc3nc12 (stereo unspecified) | inconclusive: 23.8 µM [inhibitor, single point] | 
O=C1C(=Cc2cn(-c3ccccc3)nc2-c2ccc(OCc3ccc(Cl)cc3)cc2)SC(=S)N1CCS(=O)(=O)O | inconclusive: 8.44 µM [inhibitor, full curve] | 
O=C1NC(=O)C(=Cc2ccc(SC3CCCCC3)o2)C(=O)N1 | active: 0.597 µM | 
Cc1cc(C=C2C(=O)N(C)C(=S)N(C)C2=O)c(C)n1-c1ccncc1 | inconclusive: 4.23 µM [inhibitor, partial curve] | 
O=C(CN1C(=O)S/C(=C\C=C\c2ccccc2)C1=O)Nc1ccccc1C(=O)O | active: 18.9 µM | 
COc1ccc(NC2=NC(C)(C)CS2)cc1 | active: 21.2 µM | 
O=C1N=c2ccccc2=C/C1=C\c1c(O)[nH]c(=S)[nH]c1=O | inconclusive: 18.9 µM [inhibitor, partial curve] | 
